Experimental data published in paper PMC5996148.
Values joined by “and” are separate entries in the source; they are usually repeats but may differ in a detail not shown here. Equal entries are not always repeated. The list shows a part of the results. For some assays here: Construct or isoform of the protein are uncertain.

Tests used:
Experiment in all cases: protein microarray (ProtoArray v5.0), streptavidin-Alexa Fluor 647
Settings in all cases: 3'-biotin; 20 mM Tris (pH 7.5), 5 mM MgCl2, 100 mM KCl, 0.1% Tween-20, A/T-rich and random oligonucleotide blockers; temperature not stated; high values mean tight binding
ARL6 (human) = tested on: ARL6 (human)
ARL6IP2 (human) = tested on: ARL6IP2 (human)
ARL8B (human) = tested on: ARL8B (human)
ARL9 (human) = tested on: ARL9 (human)
ARMC1 = target: T1, ARMC1 (UniProt Q9NVT9)
T1 sequence: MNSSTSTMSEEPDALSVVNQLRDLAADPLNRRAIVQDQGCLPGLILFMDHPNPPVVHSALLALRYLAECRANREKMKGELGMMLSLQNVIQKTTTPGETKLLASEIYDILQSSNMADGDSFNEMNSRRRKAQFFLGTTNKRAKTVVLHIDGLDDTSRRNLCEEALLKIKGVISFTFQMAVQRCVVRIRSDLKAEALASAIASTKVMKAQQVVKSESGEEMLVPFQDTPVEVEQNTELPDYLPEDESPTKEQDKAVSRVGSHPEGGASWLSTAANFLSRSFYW

ARMC7 (human) = tested on: ARMC7 (human)
ARMC8 (human) = tested on: ARMC8 (human)
ARPC5 = ARPC5 (UniProt O15511)
ARRDC3 (human) = tested on: ARRDC3 (human)
ART4 (human) = tested on: ART4 (human)
ASAHL (human) = tested on: ASAHL (human)
ASB11 (human) = tested on: ASB11 (human)
ASB13 (human) = tested on: ASB13 (human)
ASB6 (human) = tested on: ASB6 (human)
ASB7 (human) = tested on: ASB7 (human)
ASF1A (human) = tested on: ASF1A (human)
ASMTL (human) = tested on: ASMTL (human)
ASNS = target: T2, ASNS (UniProt P08243)
T2 sequence: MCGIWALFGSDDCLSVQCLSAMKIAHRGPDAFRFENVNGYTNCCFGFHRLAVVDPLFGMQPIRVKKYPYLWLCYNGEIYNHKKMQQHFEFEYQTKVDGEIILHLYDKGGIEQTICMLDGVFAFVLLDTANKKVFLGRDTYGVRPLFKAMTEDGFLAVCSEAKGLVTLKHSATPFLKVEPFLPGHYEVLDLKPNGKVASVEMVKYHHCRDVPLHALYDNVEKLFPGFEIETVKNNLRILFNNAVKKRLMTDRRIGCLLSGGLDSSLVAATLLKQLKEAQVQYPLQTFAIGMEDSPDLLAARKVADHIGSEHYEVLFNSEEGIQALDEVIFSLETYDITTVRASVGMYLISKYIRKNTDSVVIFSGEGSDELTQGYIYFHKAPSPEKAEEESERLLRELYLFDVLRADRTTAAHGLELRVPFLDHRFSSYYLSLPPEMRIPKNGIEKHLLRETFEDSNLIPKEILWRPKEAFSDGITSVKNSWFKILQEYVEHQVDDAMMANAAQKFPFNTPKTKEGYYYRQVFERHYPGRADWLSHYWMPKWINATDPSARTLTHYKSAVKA

ASPH (human) = tested on: ASPH (human)
ASXL1 = ASXL1 (UniProt Q8IXJ9)

GGGAGGCTGAGGCAGG [G4-1 biotinylated (PQS2)]
binding signal (ARL6 (human)): -0.345 z-score | binding signal (ARL6IP2 (human)): -0.312 z-score | binding signal (ARL8B (human)): -0.326 z-score | binding signal (ARL9 (human)): -0.336 z-score | binding signal (ARMC1): -0.28 z-score | binding signal (ARMC7 (human)): -0.325 z-score | binding signal (ARMC8 (human)): -0.307 z-score | binding signal (ARPC5): -0.299 z-score | binding signal (ARRDC3 (human)): -0.323 z-score | binding signal (ART4 (human)): -0.266 z-score | binding signal (ASAHL (human)): -0.256 z-score | binding signal (ASB11 (human)): -0.351 z-score | binding signal (ASB13 (human)): -0.272 z-score | binding signal (ASB6 (human)): -0.337 z-score | binding signal (ASB7 (human)): -0.245 z-score | binding signal (ASF1A (human)): -0.303 z-score | binding signal (ASMTL (human)): -0.356 z-score and -0.347 z-score | binding signal (ASNS): -0.359 z-score | binding signal (ASPH (human)): -0.303 z-score | binding signal (ASXL1): 6.13 z-score
